From patent US11156615B2 (priority 2015, dated 2021)

Tests used:
[1] = Analysis of emission spectra components: singular value decomposition and Gaussian fits of S1/S2 electronic transitions; conditions: for Gaussians Fraction f(S1) Sat: glucose-saturated
[2] = Glucose-dependent fluorescence emission intensity spectra of conjugates (Nanodrop3300); type: biochemical; conditions: Nanodrop, room temperature
Text: Semi-synthetic FRSs were engineered by site-specifically attaching thiol-reactive, environmentally sensitive fluorophores that respond to ligand-mediated conformational changes. Identification of FRS candidates that are useful for sensing applications comprises three steps: • 1. Cysteine scan. Mutant glucose-binding proteins containing single cysteines are constructed for site-specific attachment of thiol-reactive fluorophores. […] Candidate positions fall into three classes: endosteric, replacing a residue that contacts the ligand directly; peristeric, located at the rim of the binding site; allosteric (Marvin et al. 1997 Proc Natl Acad Sci USA, 94, 4366-71; Marvin 1998 J Am Chem Soc, 120, 7-11), located outside the binding site at sites that undergo local structural changes in concert with the hinge-bending motion. • 2. Fluorophore screening. Thiol-reactive, environmentally sensitive fluorophores are attached to each cysteine mutant prepared in step 1. • 3. Evaluation of the glucose-mediated change of all the fluorescent conjugates prepared in step 2. Responses to ligand binding in which there is both a change in fluorescence emission intensity and spectral shape was essential for chemometric applications, because such changes enable ratiometric measurements. Changes in spectral shape typically are accompanied by a shift in the wavelength of the emission intensity maxima. Three classes of fluorescent responses are possible: • i. No response. • ii. Monochromatic response (emission intensity increases or decreases without a change in spectral shape) • iii.

[3] = Acrylodan conjugate of ttGGBP.17C mutant
[4] = Badan conjugate of ttGGBP.17C mutant

B1: ttGGBP17C.6: affinity-tuning mutant, 17C background, SEQ ID NO: 71 (protein)
chain: MKQLNIGVAIYKFDETCMTGVRNAMTAEAQGKAKLNMVDSQNSQPTQNDQVDLFITKKMNALAINPVDRTAAGTIIDKAKQANIPVVFFNREPLPEDMKKWDKVYYVGAKAEQSGILQGQIMADYWKAHPEADKNHDGVMQYVMLMGQPGHQDAILRTQYSIQTVKDAGIKVQELAKDYANWDRVTAHDKMAAWLSSFGDKIEAVFANNDDMALGAIEALKSAGYFTGNKYIPVVGVDATAPGIQAIKDGTLLGTVLNDAKNQAKATFNIAYELAQGITPTKDNIGYDITDGKYVWIPYKKITKDNISDAEQGGSHHHHHH
modifications: ttGGBP17C.6 (affinity-tuning mutant, 17C background (Table 6) with signal peptide replaced with M and GGSHHHHHH at C-terminus)
For B1, the “Gaussians Peak S1” value [1, 3] was 511 nm, the “Gaussians Peak S2” value [1, 3] was 448 nm and the “Gaussians Fraction f(S1) Apo” value [1, 3] was 0.72. The “Gaussians Peak S1” value [1, 4] was 525 nm, the “Gaussians Peak S2” value [1, 4] was 473 nm and the “SVD component fraction C1” value [1, 4] was 0.90. For the same molecule, the “SVD component fraction C2” value [1, 4] was 0.09, the “Gaussians Fraction f(S1) Apo” value [1, 4] was 0.39 and the “Gaussians Fraction f(S1) Sat” value [1, 4] was 0.15. For the same molecule, the “Emission wavelength λ1 (optimal ratiometry wavelength)” value ([2]; Badan conjugate) was 467 nm and the “Emission wavelength λ2 (optimal ratiometry wavelength)” value ([2]; Badan conjugate) was 525 nm.

B2: ttGGBP17C.8: affinity-tuning mutant, 17C background, SEQ ID NO: 73 (protein)
chain: MKQLNIGVAIYKFDDNCMTGVRNAMTAEAQGKAKLNMVDSQNSQPTQNDQVDLFITKKMNALAINPVDRTAAGTIIDKAKQANIPVVFFNREPLPEDMKKWDKVYYVGAKAEQSGILQGQIMADYWKAHPEADKNHDGVMQYVMLMGQPGHQDAILRTQYSIQTVKDAGIKVQELAKDYANWDRVTAHDKMAAWLSSFGDKIEAVFANNDDMALGAIEALKSAGYFTGNKYIPVVGVDATAPGIQAIKDGTLLGTVLNDAKNQAKATFNIAYELAQGITPTKDNIGYDITDGKYVWIPYKKITKDNISDAEQGGSHHHHHH
modifications: ttGGBP17C.8 (affinity-tuning mutant, 17C background (Table 6) with signal peptide replaced with M and GGSHHHHHH at C-terminus)
For B2, the “Gaussians Peak S1” value [1, 3] was 533 nm, the “Gaussians Peak S2” value [1, 3] was 496 nm and the “SVD component fraction C1” value [1, 3] was 0.93. The “SVD component fraction C2” value [1, 3] was 0.07, the “Gaussians Fraction f(S1) Apo” value [1, 3] was 0.30 and the “Gaussians Fraction f(S1) Sat” value [1, 3] was 0.00. For the same molecule, the “Emission wavelength λ1 (optimal ratiometry wavelength)” value ([2]; Acrylodan conjugate) was 487 nm and the “Emission wavelength λ2 (optimal ratiometry wavelength)” value ([2]; Acrylodan conjugate) was 529 nm.

B3: ttGGBP17C.11: affinity-tuning mutant, 17C background, SEQ ID NO: 76 (protein)
chain: MKQLNIGVAIYKFDDTCMTGVRNAMTAEAQGKAKLNMVDSQNSQPTQNDQVDLFITKKMNALAINPVDRTAAGTIIDKAKQANIPVVFFNREPLPEDMKKWDKVYYVGAKAEQSGILQGQIMADYWKAHPEADKNHDGVMQYVMLMGQPGHQDAILRTQYSIQTVKDAGIKVQELAKDYANWDRVTAHDKMAAWLSSFGDKIEAVFANNDDMALGAIEALKSAGYFTGNKYIPVVGVDAAAPGIQAIKDGTLLGTVLNDAKNQAKATFNIAYELAQGITPTKDNIGYDITDGKYVWIPYKKITKDNISDAEQGGSHHHHHH
modifications: ttGGBP17C.11 (affinity-tuning mutant, 17C background (Table 6) with signal peptide replaced with M and GGSHHHHHH at C-terminus)
For B3, the “Gaussians Peak S1” value [1, 3] was 541 nm, the “Gaussians Peak S2” value [1, 3] was 487 nm and the “SVD component fraction C1” value [1, 3] was 0.95. For the same molecule, the “SVD component fraction C2” value [1, 3] was 0.03, the “Gaussians Fraction f(S1) Apo” value [1, 3] was 0.35 and the “Gaussians Fraction f(S1) Sat” value [1, 3] was 0.25. The “Emission wavelength λ1 (optimal ratiometry wavelength)” value ([2]; Acrylodan conjugate) was 487 nm and the “Emission wavelength λ2 (optimal ratiometry wavelength)” value ([2]; Acrylodan conjugate) was 500 nm.

B4: ttGGBP182C.6: affinity-tuning mutant, 182C background, SEQ ID NO: 100 (protein)
chain: MKQLNIGVAIYKFDDNFMTGVRNAMTAEAQGKAKLNMVDSQNSQPTQNDQVDLFITKKMNALAINPVDRTAAGTIIDKAKQANIPVVFFNREPLPEDMKKWDKVYYVGAKAEQSGILQGQIMADYWKAHPEADKNHDGVMQYVMLMGQPGHQDAILRTQYSIQTVKDAGIKVQELAKDYANCDRVTAHDKMAAWLSSFGDKIEAVFANNDAMALGAIEALKSAGYFTGNKYIPVVGVDATAPGIQAIKDGTLLGTVLNDAKNQAKATFNIAYELAQGITPTKDNIGYDITDGKYVWIPYKKITKDNISDAEQGGSHHHHHH
modifications: ttGGBP182C.6 (affinity-tuning mutant, 182C background (Table 6) with signal peptide replaced with M and GGSHHHHHH at C-terminus)
For B4, the “Emission wavelength λ1 (optimal ratiometry wavelength)” value ([2]; Acrylodan conjugate) was 472 nm and the “Emission wavelength λ2 (optimal ratiometry wavelength)” value ([2]; Acrylodan conjugate) was 530 nm.

B5: ttGGBP182C.8: affinity-tuning mutant, 182C background, SEQ ID NO: 102 (protein)
chain: MKQLNIGVAIYKFDDTFMTGVRNAMTAEAQGKAKLNMVDSQNSQPTQNDQVDLFITKKMNALAINPVDRTAAGTIIDKAKQANIPVVFFNKEPLPEDMKKWDKVYYVGAKAEQSGILQGQIMADYWKAHPEADKNHDGVMQYVMLMGKPGHQDAILRTQYSIQTVKDAGIKVQELAKDYANCDRVTAHDKMAAWLSSFGDKIEAVFANNDDMALGAIEALKSAGYFTGNKYIPVVGVDATAPGIQAIKDGTLLGTVLNDAKNQAKATFNIAYELAQGITPTKDNIGYDITDGKYVWIPYKKITKDNISDAEQGGSHHHHHH
modifications: ttGGBP182C.8 (affinity-tuning mutant, 182C background (Table 6) with signal peptide replaced with M and GGSHHHHHH at C-terminus)
For B5, the “Emission wavelength λ1 (optimal ratiometry wavelength)” value ([2]; Acrylodan conjugate) was 475 nm and the “Emission wavelength λ2 (optimal ratiometry wavelength)” value ([2]; Acrylodan conjugate) was 545 nm.

B6: ttGGBP182C.9: affinity-tuning mutant, 182C background, SEQ ID NO: 103 (protein)
chain: MKQLNIGVAIYKFDNTFMTGVRNAMTAEAQGKAKLNMVDSQNSQPTQNDQVDLFITKKMNALAINPVDRTAAGTIIDKAKQANIPVVFFNREPLPEDMKKWDKVYYVGAKAEQSGILQGQIMADYWKAHPEADKNHDGVMQYVMLMGQPGHQDAILRTQYSIQTVKDAGIKVQELAKDYANCDRVTAHDKMAAWLSSFGDKIEAVFANNDDMALGAIEALKSAGYFTGNKYIPVVGVDATAPGIQAIKDGTLLGTVLNDAKNQAKATFNIAYELAQGITPTKDNIGYDITDGKYVWIPYKKITKDNISDAEQGGSHHHHHH
modifications: ttGGBP182C.9 (affinity-tuning mutant, 182C background (Table 6) with signal peptide replaced with M and GGSHHHHHH at C-terminus)
With B6 the “Emission wavelength λ1 (optimal ratiometry wavelength)” value ([2]; Acrylodan conjugate) was 475 nm and the “Emission wavelength λ2 (optimal ratiometry wavelength)” value ([2]; Acrylodan conjugate) was 540 nm.
